# From the supplement of paper PMC10735217
# Where a name gives a salt, the structure may show the parent alone. Some of the results follow. Single values are uncertain here, since repeats match poorly.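 In a drug-repurposing library screen, luminescence reads luciferase driven by eight TEAD-binding elements, stably integrated into human kidney-derived cells. Compounds scoring over five robust Z scores above the plate mean are called hits.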
# Tested on: HEK293A TEAD-LUC reporter
# Experiment: TEAD-luciferase reporter activity (YAP activation), robust Z score vs plate; higher = stronger YAP/TEAD activation
# Conditions: 24 h
Compound,TEAD-luciferase reporter activity (compound concentration: 200 nM),TEAD-luciferase reporter activity (compound concentration: 2 uM),TEAD-luciferase reporter activity (compound concentration: 10 uM)
COc1ccc([C@H](Cc2ccncc2)c2ccccc2)cc1OC1CCCC1,inactive: -0.492,inactive: 0.0581,inactive: -0.707
CN(C)CC(O)CN(C)C,inactive: 2.87,inactive: -0.319,inactive: 0.0832
CN(C)c1ccc2nc3ccc(=[N+](C)C)cc-3sc2c1 [Methylene Blue trihydrate],inactive: 0.0961,–,inactive: -1.04
CN(C)c1ccc2nc3ccc(=[N+](C)C)cc-3sc2c1 [methylthioninium chloride],–,inactive: -0.583,–
COC(=O)C1=C(C)NC(C)=C(C(=O)OC(C)C)C1c1cccc2nonc12 (stereo unspecified) [isradipine],inactive: -0.41,inactive: -0.893,inactive: -0.419
CCN(CC)CCNC(=O)c1cc(S(C)(=O)=O)ccc1OC [tiapride],inactive: -2.7,inactive: -1.27,inactive: 2.74
C1CC1CN1CCN(CC2CC2)CC1,inactive: 1.33,inactive: 0.221,inactive: 0.416
OC(COc1ccc(F)cc1)CN1CCN(c2nc3ccc(Cl)cc3s2)CC1 (stereo unspecified),inactive: -1.07,inactive: -0.331,inactive: -0.0927
CC[C@H](C)[C@H]1O[C@]2(CC[C@@H]1C)C[C@@H]1C[C@@H](C/C=C(\C)[C@@H](O[C@H]3C[C@H](OC)[C@@H](O[C@H]4C[C@H](OC)[C@@H](O)[C@H](C)O4)[C@H](C)O3)[C@@H](C)/C=C/C=C3\CO[C@@H]4[C@H](O)C(C)=C[C@@H](C(=O)O1)[C@]34O)O2 [ivermectin 1%],–,inactive: 2.66,–
"CC[C@H](C)[C@H]1O[C@]2(CC[C@@H]1C)C[C@@H]1C[C@@H](C/C=C(\C)[C@@H](O[C@H]3C[C@H](OC)[C@@H](O[C@H]4C[C@H](OC)[C@@H](O)[C@H](C)O4)[C@H](C)O3)[C@@H](C)/C=C/C=C3\CO[C@@H]4[C@H](O)C(C)=C[C@@H](C(=O)O1)[C@]34O)O2 [ivermectin 1%, Galderma]",inactive: -0.416,–,inactive: 0.573
CN(c1ccc(/C=C/C[C@H](NC(=O)c2c(F)cccc2F)C(=O)O)cc1)c1ncccn1,inactive: 0.567,inactive: -0.907,inactive: 0.41
O=S(=O)(O)c1ccccc1CO,inactive: -1.21,inactive: -2.46,inactive: 1.65
N#CCC1(n2cc(-c3ncnc4[nH]ccc34)cn2)CN(C2CCN(C(=O)c3ccnc(C(F)(F)F)n3)CC2)C1,inactive: -1.23,inactive: -0.935,inactive: -1.32
CNC(=O)c1c(-c2ccc(F)cc2)oc2cc(N(Cc3ccc(B(O)O)c(F)c3)S(C)(=O)=O)c(C3CC3)cc12,inactive: -1.52,inactive: -1.72,inactive: -1.59
CCNCC1CCN(c2c(F)cc3c(=O)c(C(=O)O)cn(CC)c3c2F)C1 (stereo unspecified),inactive: 0.734,inactive: 1.69,inactive: 1.27
O/N=C(\Nc1ccccc1)c1cccc(C(F)(F)F)c1,inactive: 0.969,inactive: -1.4,inactive: -0.671
C[C@@H](O)[C@H](NC(=O)C1CSSC[C@H](NC(=O)[C@H](N)Cc2ccccc2)C(=O)N[C@@H](Cc2ccc(O)cc2)C(=O)NC(Cc2c[nH]c3ccccc23)C(=O)NC(CCCCN)C(=O)N1)C(N)=O (stereo partly specified),inactive: -0.257,–,inactive: 1.88
O=C(Cc1cccs1)N[C@@H]1C(=O)N2C(C(=O)O)=C(CSc3nc[nH]n3)CS[C@H]12,inactive: -0.111,inactive: -0.735,inactive: 0.296
NC(=O)N1c2ccccc2COc2ccc(Cl)cc21,inactive: 4.4,inactive: -1.92,inactive: -0.804
CC(=O)O[C@@H]1CC[C@@]2(C)[C@@H](CC[C@]3(C)[C@@H]2C(=O)C=C2[C@@H]4[C@@H](C)[C@H](C)CC[C@]4(C)CC[C@]23C)[C@@]1(C)C(=O)O,–,inactive: -0.944,–
"CC(=O)O[C@@H]1CC[C@@]2(C)[C@@H](CC[C@]3(C)[C@@H]2C(=O)C=C2[C@@H]4[C@@H](C)[C@H](C)CC[C@]4(C)CC[C@]23C)[C@@]1(C)C(=O)O [Acetyl-11-keto-?-Boswellic Acid, Boswellia serrata]",inactive: -0.984,–,inactive: 0.0318
Oc1ccc(C2COc3cc(O)ccc3C2c2ccc(O)cc2)cc1 (stereo unspecified),inactive: -0.0698,inactive: -0.0622,inactive: 2.99
O=C(O)COCCOCCN1CCC(=C(c2ccccc2)c2ccccc2)CC1 [Pibaxizine],inactive: -1.81,inactive: -0.781,inactive: 0.264
NCCCC[C@H](NC(=O)[C@@H]1CCCN1C(=O)[C@@H]1CSSC[C@H](NC(=O)CNC(=O)CNC(=O)CN)C(=O)N[C@@H](Cc2ccc(O)cc2)C(=O)N[C@@H](Cc2ccccc2)C(=O)N[C@@H](CCC(N)=O)C(=O)N[C@@H](CC(N)=O)C(=O)N1)C(=O)NCC(N)=O [Terlipressin],inactive: -0.7,inactive: -0.163,inactive: 0.199

Compound,TEAD-luciferase reporter activity (compound concentration: 200 nM),TEAD-luciferase reporter activity (compound concentration: 2 uM),TEAD-luciferase reporter activity (compound concentration: 10 uM)
CC(=O)Nc1cccc(-n2c(=O)n(C3CC3)c(=O)c3c(Nc4ccc(I)cc4F)n(C)c(=O)c(C)c32)c1 [Trametinib],inactive: -0.765,–,inactive: -1.9
CC(=O)Nc1cccc(-n2c(=O)n(C3CC3)c(=O)c3c(Nc4ccc(I)cc4F)n(C)c(=O)c(C)c32)c1 [Trametinib dimethyl sulfoxide],–,inactive: -1.89,–
O=C(NCC1CCNCC1)c1cnc(Nc2cccc(Cl)c2)nc1C(F)(F)F,inactive: -1.15,inactive: -0.402,inactive: -0.63
CC(C(=O)O)c1ccc2c(c1)[nH]c1ccc(Cl)cc12 (stereo unspecified) [carprofen],inactive: 1.73,inactive: -2.38,inactive: 2.69
O=c1ccc2c(OCCCCOc3ccccc3)c3ccoc3cc2o1,inactive: 0.642,inactive: 1.67,inactive: -0.997
C=CCNc1nc(NCC=C)nc(N2CCN(C(c3ccc(F)cc3)c3ccc(F)cc3)CC2)n1 [almitrine bismesilate],inactive: -0.394,inactive: -1.51,inactive: -0.902
CC(=O)OCC(=O)[C@@]12OC3(CCCC3)O[C@@H]1C[C@H]1[C@@H]3CCC4=CC(=O)C=C[C@]4(C)[C@@]3(F)[C@@H](O)C[C@@]12C [amcinonide],inactive: -0.112,inactive: 0.899,inactive: 1.9
O=C(O)c1ccccc1-c1ccc(C(F)(F)F)cc1,inactive: 1.36,inactive: 0.659,inactive: -1.75
CN1CCc2ccccc2Oc2ccccc2CC1,inactive: 0.0232,inactive: -0.307,inactive: -1.52
CCc1c(Cl)c(O)c(Cl)c(O)c1C(=O)O[C@H]1[C@H](O)[C@H](OC)[C@H](OCC2=C/C=C/C[C@H](O)/C(C)=C\[C@H](CC)[C@@H](O[C@@H]3OC(C)(C)C(OC(=O)C(C)C)[C@H](O)[C@@H]3O)C(C)=CC(C)=CC[C@@H]([C@@H](C)O)OC2=O)O[C@@H]1C (stereo partly specified) [fidaxomicin],inactive: -1.79,inactive: -1.01,inactive: -0.317
CCC(O)(CC)c1ccc(N2CCC(Cc3ccccc3N3CCN(C)CC3)C2=O)cn1 (stereo unspecified),inactive: 1.53,inactive: -0.387,inactive: -0.393
CCCC(=O)c1cnc2c(OC)cccc2c1Nc1ccccc1C,inactive: -0.422,inactive: 0.806,inactive: 0.316
Cc1cccc2c(C3C(=O)NC(=O)C3c3nc(N4CCNC5(CC5)C4)cc4ccccc34)c[nH]c12 (stereo unspecified),inactive: 0.991,inactive: -1.48,inactive: -1.73
NC1(C(=O)O)CC1,inactive: 2.29,inactive: -0.25,inactive: 1.75
CC(C)N1CCC(c2ccccc2)(c2ccccc2)CC1,inactive: -0.204,inactive: -0.783,inactive: -0.0901
O=C1Nc2ccccc2C(c2ccccc2)N1C1CCN(Cc2cccc(OC(F)(F)F)c2)CC1 (stereo unspecified) [Afacifenacin fumarate],inactive: 0.24,inactive: -0.39,inactive: 2.62
CC(C)NC1CCC(c2ccccc2)(c2ccccc2)CC1,inactive: -0.259,inactive: -0.451,inactive: 0.444
CO[C@H]1O[C@@H]2O[C@]3(C)CC[C@H]4[C@H](C)CC[C@@H]([C@H]1C)[C@@]24OO3 [Artemether],inactive: -2.01,inactive: -0.897,inactive: -1.12
Cn1cc(NS(C)(=O)=O)c(=O)c2ccccc21,inactive: -0.483,inactive: -0.493,inactive: -0.236
CC(C)(C)NC(=O)c1ccc(Oc2cc(F)c(CC(=O)O)cc2Cl)c(NS(=O)(=O)c2ccc(C3CC3)cc2Cl)c1,inactive: -0.542,inactive: -0.179,inactive: -0.864
CN/C(=N\S(=O)(=O)c1ccc(C(F)(F)F)cc1)N1C[C@H](c2ccccc2)C(c2ccc(Cl)cc2)=N1,inactive: -1.87,inactive: 0.15,inactive: -0.758
NC(=O)c1ccn2c1CSC2c1cccnc1 (stereo unspecified),inactive: -2.05,inactive: 1.18,inactive: -0.302
Cc1cc(F)ccc1Nc1ccc(C(=O)c2ccccc2C)c(Cl)c1,inactive: -1.35,inactive: -0.0446,inactive: -0.575
CC(C)(N)C(=O)N[C@H](CCCc1ccccc1)C(=O)N1CCC2(CC1)CN(S(C)(=O)=O)c1ccccc12,inactive: -1.9,inactive: 1.72,inactive: -1.81

# Full records, quoted from the list. Values in the order: TEAD-luciferase reporter activity (compound concentration: 200 nM)	TEAD-luciferase reporter activity (compound concentration: 2 uM)	TEAD-luciferase reporter activity (compound concentration: 10 uM)
# CN1CCc2ccccc2Oc2ccccc2CC1 in the list: inactive: 0.0232	inactive: -0.307	inactive: -1.52
# O=C(NCC1CCNCC1)c1cnc(Nc2cccc(Cl)c2)nc1C(F)(F)F in the list: inactive: -1.15	inactive: -0.402	inactive: -0.63

# Exported tab-delimited: entries from further up
Compound	TEAD-luciferase reporter activity (compound concentration: 200 nM)	TEAD-luciferase reporter activity (compound concentration: 2 uM)	TEAD-luciferase reporter activity (compound concentration: 10 uM)
O=c1ccc2c(OCCCCOc3ccccc3)c3ccoc3cc2o1	inactive: 0.642	inactive: 1.67	inactive: -0.997
CO[C@H]1O[C@@H]2O[C@]3(C)CC[C@H]4[C@H](C)CC[C@@H]([C@H]1C)[C@@]24OO3 [Artemether]	inactive: -2.01	inactive: -0.897	inactive: -1.12
